Measurements from PubChem BioAssay AID2551 (National Center for Advancing Translational Sciences (NCATS), 2010).
Out of some 310,000 compounds screened, about 17,000 (5.5%) were called active. This list was built around the results that the source calls inconclusive (neither active nor inactive); the mix of calls is not that of the screen. Calls come from the whole dose curve; as a rule, active = well fitted inhibition curve with a large enough effect; inconclusive = small, poorly fitted or top-dose-only effect, or effect the other way; inactive = no such curve, though single readings can be large or run the other way. Potencies beside an inconclusive call are fits to weak or partial responses and may not hold up.

Amino acid sequences for entries named in this document (tags omitted). A change or cut given only in a name is not applied to a line headed by its entry.
UniProt P51450: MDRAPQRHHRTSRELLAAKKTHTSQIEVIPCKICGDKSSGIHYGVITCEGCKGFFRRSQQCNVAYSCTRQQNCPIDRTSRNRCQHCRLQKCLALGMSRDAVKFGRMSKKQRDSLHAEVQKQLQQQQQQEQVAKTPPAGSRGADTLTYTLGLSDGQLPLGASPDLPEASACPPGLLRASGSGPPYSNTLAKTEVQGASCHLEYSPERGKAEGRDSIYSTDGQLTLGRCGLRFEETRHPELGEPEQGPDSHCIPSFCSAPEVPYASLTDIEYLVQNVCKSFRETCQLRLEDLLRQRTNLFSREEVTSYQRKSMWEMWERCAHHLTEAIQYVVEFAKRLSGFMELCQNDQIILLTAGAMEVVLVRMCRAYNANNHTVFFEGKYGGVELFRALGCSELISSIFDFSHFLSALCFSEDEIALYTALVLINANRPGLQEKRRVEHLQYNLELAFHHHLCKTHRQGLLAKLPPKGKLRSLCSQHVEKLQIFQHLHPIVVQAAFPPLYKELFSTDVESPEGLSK

target: Nuclear receptor ROR-gamma (Mus musculus) (UniProt P51450); test: qHTS for inhibitors of ROR gamma transcriptional activity; conditions: Drosophila S2 Gal4-RORgamma UAS-luciferase reporter, 20 h; activity change, negative = inhibition: at 53.6 µM (top of the series); note: nearly all actives have a fitted effect of over 60% in size
Summary of the method: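 A Gal4/UAS one-hybrid system in insect cells: metallothionein-promoter Gal4–ROR gamma fusion plus Photinus luciferase reporter. Copper sulfate 700 uM final, 20 hr ambient incubation, luminescent detection after 10 min with reagent.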
% is set by controls: 0 for no effect and ±100 for the full control effect; potency is the fitted concentration of half-maximal effect.

SMILES	Potency	activity change, negative = inhibition
Cc1cc(/C=C\c2nc(O)c([N+](=O)[O-])c(=O)[nH]2)c(C)n1-c1ccccc1	inconclusive: 35.5 µM [inhibitor, single point]	–
Nc1ccc(C(=O)NC2CCSc3ccccc32)cc1[N+](=O)[O-] (stereo not given)	inconclusive: 15.8 µM [inhibitor, single point]	–
CNC(C)C#Cc1ccc2oc3cccc(OC)c3c(=O)c2c1 (stereo not given)	inconclusive: 17.8 µM [inhibitor, single point]	–
C=CCCCCCCCCC(=O)NNC1CC(=O)N(c2ccccc2)C1=O (stereo not given)	–	inactive: -0.078%
O=S(=O)(Nc1nc2ccccc2nc1Cl)c1ccc(Cl)cc1	inconclusive: 11.2 µM [activator, partial curve]	–
NCCOc1ccc(C23CC4CC(CC(C4)C2)C3)cc1	inconclusive: 35.5 µM [inhibitor, single point]	–
O=[N+]([O-])c1ccc(N2CCN(c3ccc([N+](=O)[O-])cc3CO)CC2)c(CO)c1	inconclusive: 3.98 µM [activator, single point]	–
O=C(Nc1cccc(-c2nc3cccnc3s2)c1)c1ccco1	–	inactive: 37.6%
Cc1ccc(CNCC(O)(c2ccccc2)c2ccc(Cl)cc2)cc1 (stereo not given)	inconclusive: 20 µM [inhibitor, single point]	–
O=C(Cc1ccc(Cl)c(Cl)c1)NNC(=S)NCC1CCCO1 (stereo not given)	inconclusive: 1.26 µM [inhibitor, partial curve]	–
COc1ccc(OC)c(C2C(C(=O)Nc3nc4ccccc4s3)=C(C)NC3=C2C(=O)CCC3)c1 (stereo not given)	inconclusive: 12.6 µM [activator, single point]	–
CC(=O)Nc1ccc(S(=O)(=O)NCCC(=O)OCC(=O)N2CCN(C(=O)c3ccco3)CC2)cc1	–	inactive: -0.31%
Cc1ccc(F)cc1NC(=O)c1sc2ncn(CC(=O)N3CCN(c4ccccn4)CC3)c(=O)c2c1C	–	inactive: -2.17%
NC(=O)c1ccc(CN2CCc3ccccc3C2)cc1	inconclusive: 35.5 µM [inhibitor, single point]	–
FCCCOc1ccc(/C=N/OCc2ccc(Cl)cc2)cc1	inconclusive: 12.6 µM [activator, partial curve]	–
Cc1cccc2sc(N(CCCN(C)C)C(=O)c3nc4ccccc4s3)nc12	inconclusive: 35.5 µM [inhibitor, single point]	–
CSCC[C@H](NC(=O)OC(C)(C)C)C(=O)N/N=C/c1cccc2cccnc12	active: 7.08 µM	–
CC1CCCN(S(=O)(=O)c2ccc(C(=O)Nc3nnc(-c4ccccn4)o3)cc2)C1 (stereo not given)	active: 1.78 µM	–
Fc1cccc(Cl)c1-c1nnc2ccc(N3CCOCC3)nn12	inconclusive: 35.5 µM [inhibitor, single point]	–
N#Cc1ccc(C(=O)Nc2nnc(-c3ccco3)o2)cc1	active: 1 µM	–
Clc1ccccc1Cn1nc(-c2ccccc2)nc1-c1ccccc1	inconclusive: 35.5 µM [inhibitor, single point]	–
Cc1ccc(S(=O)(=O)Nc2ccc(S(=O)(=O)Nc3nccs3)cc2)c([N+](=O)[O-])c1	inconclusive: 35.5 µM [inhibitor, single point]	–
CC1CC(C)CN(C(=O)c2nn(C)c3c2CS(=O)(=O)c2ccccc2-3)C1 (stereo not given)	–	inactive: -1.38%
O=C(CSc1nnc(-c2cccnc2)n1-c1ccccc1)N1CCN(c2ccc(F)cc2)CC1	–	inactive: 2.87%
O=C(NNS(=O)(=O)c1ccc(F)cc1)c1cnn(-c2ccccc2)c1C(F)(F)F	inconclusive: 35.5 µM [inhibitor, single point]	–

SMILES	Potency	activity change, negative = inhibition
Cc1ccc2c(c1)nnn2C1CCN(S(=O)(=O)c2ccc(C(=O)NC3CCCC3)cc2)CC1	–	inactive: 10.1%
CCCCSc1nnc(-c2ccc(C)cc2)c2ccccc12	inconclusive: 35.5 µM [inhibitor, single point]	–
COCCN(Cc1cc2cc3c(cc2nc1Cl)OCO3)C(=O)Nc1ccc(F)cc1	inconclusive: 6.31 µM [activator, partial curve]	–
Cc1ccc(N=Nc2ccc(O)c(/C=N\NC(=O)c3ccc(N)cc3)c2)cc1C	active: 3.16 µM	–
COc1ccc2c(C=Nc3c(C)n(C)n(-c4ccccc4)c3=O)c(O)n(Cc3ccco3)c(=O)c2c1	inconclusive: 8.91 µM [activator, partial curve]	–
CCNC(=S)N(CCc1c(C)[nH]c2ccc(Cl)cc12)Cc1ccco1	inconclusive: 35.5 µM [inhibitor, single point]	–
CCc1ccc2nc(NC(=O)c3ccc4c(=O)[nH]c(CN5CCOCC5)nc4c3)sc2c1	inconclusive: 31.6 µM [activator, single point]	–
Nc1nonc1-n1nnc(C(=O)N/N=C/c2ccoc2)c1-c1ccccc1	inconclusive: 35.5 µM [inhibitor, single point]	–
Cc1ccc(NC(=O)c2cc(N3C(=O)C=CC3=O)ccc2N2CCOCC2)cc1	active: 7.08 µM	–
CC(=O)OCCCNc1cc(SCc2ccco2)c2nonc2c1[N+](=O)[O-]	inconclusive: 14.1 µM [inhibitor, single point]	–
Cc1ccc(S(=O)(=O)N2CCN(C(=O)C3COc4ccccc4O3)CC2)cc1C (stereo not given)	–	inactive: 60.5%
CCCNC(=O)Cn1c(=O)/c(=C\c2ccc(-c3ccc([N+](=O)[O-])cc3)o2)s/c1=C\C(=O)C(C)(C)C	–	inactive: 36.8%
NS(=O)(=O)c1cc2c(cc1C(F)(F)F)N[C@H](Cc1ccccc1)NS2(=O)=O	–	inactive: -8.33% [at 2.98 µM]
O=C(O)Cc1sc(-c2cccnc2)nc1-c1ccc(Br)cc1	–	inactive: 7.54%
COc1cccc(C(=O)NC(=S)Nc2cccnc2)c1	inconclusive: 22.4 µM [inhibitor, single point]	–
Cc1cc(C)cc(OCC(=O)N(Cc2ccc(N(C)C)cc2)C2CCS(=O)(=O)C2)c1 (stereo not given)	–	inactive: 37.1%
CN1CCC(N(C)C(=O)/C(C#N)=C/c2ccc(OC(F)F)cc2)CC1	–	inactive: 3.03%
Cc1ccc(C2CC(c3cccs3)=NN2C(=O)CSC2=NCCS2)cc1 (stereo not given)	–	inactive: -42.8%
Cc1ccccc1NC(=S)c1ccc2ccccc2n1	inconclusive: 3.55 µM [inhibitor, partial curve, poor fit]	–
Cc1ccc(C(=O)Nc2cccc(N(C)S(C)(=O)=O)c2)cc1S(=O)(=O)Nc1ccccc1	inconclusive: 10 µM [activator, partial curve]	–
COc1ccc(CN(CC(=O)NC(C)C)C(=O)CCC(=O)Nc2nccs2)cc1	–	inactive: -0.704%
CCCN1Cc2cccc(C(=O)NCCc3ccccc3)c2C1=O	–	inactive: 34.2%
Cc1cc(-n2c(C)cc(C(=O)CSc3nc(N)cc(=O)[nH]3)c2C)no1	inconclusive: 2.24 µM [activator, partial curve]	–
Cc1ccc(OCC(=O)NCCCNC(=O)c2ccncc2)cc1C	–	inactive: -3.97%
C=CCn1c(N)cc(=O)nc1SC(CC)C(=O)Nc1ccc(C(C)=O)cc1 (stereo not given)	–	inactive: 6.7%

One compound at a time (already shown).
CCCNC(=O)Cn1c(=O)/c(=C\c2ccc(-c3ccc([N+](=O)[O-])cc3)o2)s/c1=C\C(=O)C(C)(C)C is listed with activity change, negative = inhibition: inactive: 36.8%
Cc1ccc(C(=O)Nc2cccc(N(C)S(C)(=O)=O)c2)cc1S(=O)(=O)Nc1ccccc1 is listed with Potency: inconclusive: 10 µM [activator, partial curve]
NS(=O)(=O)c1cc2c(cc1C(F)(F)F)N[C@H](Cc1ccccc1)NS2(=O)=O is listed with activity change, negative = inhibition: inactive: -8.33% [at 2.98 µM]

Carrying on:

SMILES	Potency	activity change, negative = inhibition
CC(C)(C)NC(=O)C(=O)NNC(=O)c1cccc(Br)c1	inconclusive: 17.8 µM [inhibitor, single point]	–
CCC(=O)N1CCN(c2ccc(Cl)cc2NC(=O)c2ccc3c(c2)OCCO3)CC1	–	inactive: 13.8%
N#CC1=C(SCC(=O)NC23CC4CC(CC(C4)C2)C3)NC(=O)C(C#N)C12CCCCC2 (stereo not given)	inconclusive: 3.55 µM [activator, partial curve]	–
NC(=NCc1ccc2c(c1)OCO2)NC(=O)c1ccccc1	–	inactive: 1.16%
COc1ccc(/C=N/Nc2ccc(C(=O)O)cc2)cc1OC	active: 1.58 µM	–
Cc1ccn2c(Nc3ccccc3)c(-c3ccccn3)nc2c1	active: 15.8 µM	–
O=C(NCCc1ccccc1)c1cc2ccccc2oc1=O	–	inactive: 1.45%
COc1ccc(S(=O)(=O)Nc2cc(Sc3ncn[nH]3)c(O)c3ccccc23)cc1	active: 5.01 µM	–
Clc1ccccc1-c1nc(-c2ccc(Br)o2)no1	inconclusive: 12.6 µM [inhibitor, single point]	–
CN1/C(=C\C(=O)c2cccs2)Sc2ccccc21	inconclusive: 15.8 µM [inhibitor, single point]	–
O=C(NC1CCCCCC1)c1cccc(COCC(F)(F)F)c1	inconclusive: 0.316 µM [inhibitor, single point]	–
CCN(CC)CCCC(C)n1c(-c2ccccc2)nc2c(NC3CCCCC3)nc(C)nc21 (stereo not given)	–	inactive: -28.3%
Cc1oc(-c2ccc(-c3ccccc3)cc2)nc1CN(C)C1CCOC1 (stereo not given)	active: 14.1 µM	–
CCOc1ccc(N(CC(=O)Nc2ccccc2OC)S(=O)(=O)c2ccccc2)cc1	–	inactive: 24.4%
CCCC(=O)Nc1ccc(Cl)c(NC(=O)c2ccco2)c1	inconclusive: 6.31 µM [activator, full curve]	–
COc1cc(NC(=S)NC(=O)CCc2ccccc2)cc(OC)c1	active: 0.562 µM	–
CCC(C)c1ccc(N(C(=O)c2ccco2)C(C(=O)NC2CCCC2)c2cccnc2)cc1 (stereo not given)	inconclusive: 15.8 µM [activator, single point]	–
Oc1ccc(Cl)cc1C1=NNC(c2cccs2)C1 (stereo not given)	active: 5.01 µM	–
N#CC1=C(C2CC2)CC(c2ccccc2)C(C#N)=C1N (stereo not given)	–	inactive: -6.92%
CN(C)CCCNC(=O)/C=C/c1ccc(OCc2c(F)cccc2Cl)cc1	inconclusive: 0.0708 µM [inhibitor, full curve, poor fit]	–
COc1ccc(NC(=S)N/N=C/c2cccn2Cc2ccccc2F)cc1	active: 0.282 µM	–
CCOc1ccc(-n2c(SCC(N)=O)nnc2-c2ccco2)cc1	–	inactive: 29.1%
C=CCNC(=S)NNC(=O)c1ccncc1	active: 10 µM	–
COc1ccc(Br)cc1/C=N/Nc1cccc(C(=O)O)c1	inconclusive: 12.6 µM [activator, single point]	–
CCC1Sc2ccc(S(=O)(=O)CCC(=O)Nc3ccc(NC(C)=O)cc3)cc2NC1=O (stereo not given)	–	inactive: -27.6%
